Experimental data reported in EP2090664A1.
No constants are given. Whether binding was seen depends on the method and setting. Some binding calls cover weakened binding; strength is not graded here.

Columns and labels:
[1] = target: T1, human cystatin C (HCC) (human) (UniProt P01034); assay: ELISA, biotinylated Aβ-peptides on adsorbed HCC
T1 sequence: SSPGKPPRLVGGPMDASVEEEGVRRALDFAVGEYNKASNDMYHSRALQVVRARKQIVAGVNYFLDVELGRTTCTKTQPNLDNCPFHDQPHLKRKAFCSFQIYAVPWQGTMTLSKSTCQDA

[2] = target: T1, human cystatin C (HCC) (human); assay: summary of affinity-MS, epitope excision and ELISA results
[3] = target: T1, human cystatin C (HCC) (human); assay: affinity experiments with Aβ-peptides on HCC (Figure 10 summary)
Biotinyl-G5-Aβ (17-28) = target: T2, Biotinyl-G5-Aβ (17-28); assay: ELISA, adsorbed HCC-peptides with BiotinG5 Aβ (17-28)
T2 sequence (peptide, N-terminal biotin (Biotinyl-G5-)): GGGGGLVFFAEDVGSNK

## GGGGGLVFFAEDVGSNK (N-terminal biotin (Biotinyl-G5-)) [Biotinyl-G5-Aβ (17-28)]
[1]
  binding: binds
[2]
  binding: binds
[3]
  binding: binds

## GGGGGVHHQKLVFFAEDVGSNKGAIIGLMVGGVV (N-terminal biotin (Biotinyl-G5-)) [Biotinyl-G5-Aβ (12-40)]
[1]
  binding: binds

## IYAVPWQGTMTLSKSTC [HCC (101-117)-peptide]
Biotinyl-G5-Aβ (17-28)
  binding: binds
